No constants are given. Whether binding was seen depends on the method and setting. In cells and extracts the contact can be indirect. A yes stands for co-enrichment or nearness to the bait. Other partners may have been found.

The chains behind the UniProt entries cited, without tags or fusion partners. Where a name states a change or a piece, a line headed by the entry shows the natural chain unless it says otherwise.
UniProt O18333: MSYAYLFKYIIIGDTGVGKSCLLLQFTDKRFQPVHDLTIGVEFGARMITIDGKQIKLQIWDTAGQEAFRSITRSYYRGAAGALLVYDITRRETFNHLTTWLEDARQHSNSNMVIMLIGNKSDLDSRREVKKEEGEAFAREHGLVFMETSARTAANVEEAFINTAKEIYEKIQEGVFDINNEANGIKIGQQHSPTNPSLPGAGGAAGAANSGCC
UniProt Q9W060: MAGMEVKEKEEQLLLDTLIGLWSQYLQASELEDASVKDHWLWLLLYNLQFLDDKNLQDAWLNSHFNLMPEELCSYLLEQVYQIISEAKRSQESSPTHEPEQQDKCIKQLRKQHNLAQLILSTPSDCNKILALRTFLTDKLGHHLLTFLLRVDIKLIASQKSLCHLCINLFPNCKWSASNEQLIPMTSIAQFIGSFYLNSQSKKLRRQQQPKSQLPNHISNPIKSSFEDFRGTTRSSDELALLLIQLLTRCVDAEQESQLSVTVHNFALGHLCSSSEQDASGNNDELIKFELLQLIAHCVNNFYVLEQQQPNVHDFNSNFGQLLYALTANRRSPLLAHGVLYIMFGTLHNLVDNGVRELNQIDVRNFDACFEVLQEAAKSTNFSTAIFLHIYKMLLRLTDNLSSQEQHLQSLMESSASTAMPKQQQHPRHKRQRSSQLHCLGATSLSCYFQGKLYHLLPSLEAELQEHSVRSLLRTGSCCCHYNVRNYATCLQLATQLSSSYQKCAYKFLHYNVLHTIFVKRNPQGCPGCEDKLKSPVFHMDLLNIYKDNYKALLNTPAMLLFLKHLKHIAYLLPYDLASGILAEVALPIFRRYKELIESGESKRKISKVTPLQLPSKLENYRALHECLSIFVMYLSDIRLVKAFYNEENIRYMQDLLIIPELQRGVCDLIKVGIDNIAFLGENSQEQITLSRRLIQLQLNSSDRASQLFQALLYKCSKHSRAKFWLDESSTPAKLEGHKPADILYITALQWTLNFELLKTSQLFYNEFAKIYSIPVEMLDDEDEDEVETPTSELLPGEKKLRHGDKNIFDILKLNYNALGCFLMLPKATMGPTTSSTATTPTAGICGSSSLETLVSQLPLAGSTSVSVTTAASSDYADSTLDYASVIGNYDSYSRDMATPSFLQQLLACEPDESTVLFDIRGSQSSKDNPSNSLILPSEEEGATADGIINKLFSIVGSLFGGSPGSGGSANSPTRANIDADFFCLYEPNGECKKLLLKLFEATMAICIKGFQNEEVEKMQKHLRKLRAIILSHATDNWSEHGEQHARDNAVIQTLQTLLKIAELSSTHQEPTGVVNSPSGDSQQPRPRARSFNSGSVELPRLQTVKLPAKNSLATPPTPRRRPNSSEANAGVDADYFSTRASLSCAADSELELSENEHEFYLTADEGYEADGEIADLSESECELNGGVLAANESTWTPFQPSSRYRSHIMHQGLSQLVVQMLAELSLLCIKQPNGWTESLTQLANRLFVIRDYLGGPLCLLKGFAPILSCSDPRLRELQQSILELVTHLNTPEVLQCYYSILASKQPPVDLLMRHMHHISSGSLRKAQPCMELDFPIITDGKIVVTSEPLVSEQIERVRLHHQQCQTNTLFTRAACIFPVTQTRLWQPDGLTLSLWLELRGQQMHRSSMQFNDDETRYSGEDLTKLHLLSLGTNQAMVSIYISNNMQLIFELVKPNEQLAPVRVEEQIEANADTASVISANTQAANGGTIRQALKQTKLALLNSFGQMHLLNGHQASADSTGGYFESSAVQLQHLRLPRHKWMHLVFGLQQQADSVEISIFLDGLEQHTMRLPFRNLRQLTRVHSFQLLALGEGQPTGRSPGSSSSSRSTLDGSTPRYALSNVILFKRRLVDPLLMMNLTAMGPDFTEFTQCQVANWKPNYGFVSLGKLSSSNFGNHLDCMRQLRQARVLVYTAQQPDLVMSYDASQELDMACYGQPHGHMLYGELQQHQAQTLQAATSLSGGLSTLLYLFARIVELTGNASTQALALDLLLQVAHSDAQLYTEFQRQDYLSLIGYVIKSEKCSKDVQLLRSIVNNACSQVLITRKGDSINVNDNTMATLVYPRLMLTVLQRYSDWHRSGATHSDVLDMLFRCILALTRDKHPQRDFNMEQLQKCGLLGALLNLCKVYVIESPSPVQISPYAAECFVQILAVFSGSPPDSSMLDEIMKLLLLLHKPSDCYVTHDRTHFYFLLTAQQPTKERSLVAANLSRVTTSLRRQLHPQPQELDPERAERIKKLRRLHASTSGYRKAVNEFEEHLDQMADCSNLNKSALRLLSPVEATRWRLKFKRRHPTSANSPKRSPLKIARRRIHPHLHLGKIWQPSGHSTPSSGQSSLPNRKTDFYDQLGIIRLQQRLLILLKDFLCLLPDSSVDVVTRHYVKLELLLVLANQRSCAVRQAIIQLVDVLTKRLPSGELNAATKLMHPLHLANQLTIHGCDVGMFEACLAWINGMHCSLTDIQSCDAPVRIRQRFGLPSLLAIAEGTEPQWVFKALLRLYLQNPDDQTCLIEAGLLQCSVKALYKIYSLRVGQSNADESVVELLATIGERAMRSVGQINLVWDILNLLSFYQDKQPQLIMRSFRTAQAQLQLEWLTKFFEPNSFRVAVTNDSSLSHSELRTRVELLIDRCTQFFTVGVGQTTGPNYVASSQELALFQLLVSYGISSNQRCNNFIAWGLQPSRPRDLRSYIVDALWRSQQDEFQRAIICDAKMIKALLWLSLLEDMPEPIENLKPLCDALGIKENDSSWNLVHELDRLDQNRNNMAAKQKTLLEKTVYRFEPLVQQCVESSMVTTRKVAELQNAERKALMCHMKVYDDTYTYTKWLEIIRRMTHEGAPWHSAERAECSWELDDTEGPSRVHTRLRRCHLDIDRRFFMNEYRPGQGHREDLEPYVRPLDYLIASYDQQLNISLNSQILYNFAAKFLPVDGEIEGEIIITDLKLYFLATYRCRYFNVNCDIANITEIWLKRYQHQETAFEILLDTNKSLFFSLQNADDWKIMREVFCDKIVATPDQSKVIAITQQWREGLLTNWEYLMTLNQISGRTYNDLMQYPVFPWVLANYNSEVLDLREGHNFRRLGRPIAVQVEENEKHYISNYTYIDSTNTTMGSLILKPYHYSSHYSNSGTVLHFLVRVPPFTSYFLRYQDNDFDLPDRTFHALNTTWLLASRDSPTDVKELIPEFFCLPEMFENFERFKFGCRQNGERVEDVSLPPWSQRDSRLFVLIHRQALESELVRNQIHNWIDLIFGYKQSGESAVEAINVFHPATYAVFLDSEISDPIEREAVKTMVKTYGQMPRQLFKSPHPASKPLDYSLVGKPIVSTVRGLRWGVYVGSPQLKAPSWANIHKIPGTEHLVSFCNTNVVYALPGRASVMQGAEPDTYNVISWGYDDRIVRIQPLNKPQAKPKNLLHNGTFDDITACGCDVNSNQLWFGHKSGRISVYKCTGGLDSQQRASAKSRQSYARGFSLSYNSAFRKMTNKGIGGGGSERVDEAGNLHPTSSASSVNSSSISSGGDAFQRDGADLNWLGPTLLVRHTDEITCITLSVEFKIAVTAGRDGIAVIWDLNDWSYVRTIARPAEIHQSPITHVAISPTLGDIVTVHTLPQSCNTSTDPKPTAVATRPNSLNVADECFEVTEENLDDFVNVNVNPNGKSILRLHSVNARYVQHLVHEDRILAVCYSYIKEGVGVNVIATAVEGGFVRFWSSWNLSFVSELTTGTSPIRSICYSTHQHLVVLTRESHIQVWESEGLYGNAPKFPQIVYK

Experiment [1] addresses GST-Rab2(Q65L), GTP-locked Drosophila Rab2 (Drosophila melanogaster) (UniProt O18333). Description: affinity purification with mass spectrometry; GST-Rab (Q→L, GTP-locked) on glutathione Sepharose; lysates of Drosophila S2 cells; eluates on SDS gels, tandem MS; hits told for both data sets (CHAPS lysis and detergent-free lysis) or without saying which data set; only the target purified.

Experiment [2] shares this target. The description is as above. The source holds these as a separate data set.
Experiment [3] has the same target. Description: affinity purification with mass spectrometry; GST-Rab (Q→L, GTP-locked) on glutathione Sepharose; S2 cells lysed in the detergent CHAPS; gel lanes above the GST-Rab (∼45–50 kDa) analysed; only the target purified.

Take “Mauve (CG42863), BEACH-domain family member (from UniProt Q9W060 1-3535)”: the binding result in experiment [1] is reported as “binds”.

B1: BicaudalD (protein, UniProt P16568 1-782)
chain: MSSASNNGPSADQSVQDLQMEVERLTRELDQVSSASAQSAQYGLSLLEEKSALQQKCEELETLYDNTRHELDITQEALTKFQTSQKVTNKTGIEQEDALLNESAARETSLNLQIFDLENELKQLRHELERVRNERDRMLQENSDFGRDKSDSEADRLRLKSELKDLKFRETRMLSEYSELEEENISLQKQVSSLRSSQVEFEGAKHEIRRLTEEVELLNQQVDELANLKKIAEKQMEEALETLQGEREAKYALKKELDGHLNRESMYHISNLAYSIRSNMEDNASNNSDGEEENLALKRLEADLSTELKSPDGTKCDLFSEIHLNELKKLEKQLESMESEKTHLTANLREAQTSLDKSQNELQNFMSRLALLAAHVDALVQLKKQIDVKEQGKEGGQKKDELEQQLRALISQYANWFTLSAKEIDGLKTDIAELQKGLNYTDATTTLRNEVTNLKNKLLATEQKSLDLQSDVQTLTHISQNAGQSLGSARSTLVALSDDLAQLYHLVCTVNGETPTRVLLDHKTDDMSFENDSLTAIQSQFKSDVFIAKPQIVEDLQGLADSVEIKKYVDTVSDQIKYLKTAVEHTIDMNKHKIRSEGGDALEKVNTEEMEELQEQIVKLKSLLSVKREQIGTLRNVLKSNKQTAEVALTNLKSKYENEKIIVSDTMSKLRNELRLLKEDAATFSSLRAMFAARCEEYVTQVDDLNRQLEAAEEEKKTLNQLLRLAVQQKLALTQRLEEMEMDREMRHVRRPMPAQRGTSGKSSFSTRPSSRNPASSNANPF
Take B1: the binding result in experiment [2] is reported as “binds”.

B2: p115, the binding partner of GM130 (protein, UniProt Q9W3N6 1-836)
chain: MEFLKSGIKTVLGSTEPGQQPSAAETVEKLVDRVYSSTLLEDRRDACRALKALSRKYRIEVGAQGMPPLVQVLQNDGQDAEIISYALDTLCNVVTSEEFDEEADNPTVSVNVGEQFTEMFIKTPEHVTLVMGYLDEYDFRVRRAAIQLITSLISNKTRELQDLILVSPMGVSKLMDLLTDSREVIRNDVLLLLIELTKGNSNIQKIVAFENAFDRLFEIVREEGCSDGGIVVEDCLILLLNLLKNNSSNQQFFKEGSYIQRLSPMFELSQDAEEVGWSPQKVSNFHCLLQVVRALVTPSNQQQVVAACQRVMQKSRLLHALCEILMSSGVPADILTETINAVAEVVRGDRDNQDELGRVMAPSSPPRPAIVVLLMSMINEKQLLALRCAVLYCFECFLYRNADGQRAVVQTLLPSSASDVSALSTGQLLCTGLFSTDALANWFSAVALMHSLVENVALKEELLRVLLATPGGQKPITLLEQCTNLMQQERYRLQSKVGLLMLLSLWLAHCPGAVKALLETQGTMAYLTAQLCSNEHDEREFLVQGMCAFLMGLCIQFNDNSLPGQKREDISQLIIKRIGQESFCSKLAEVSRHEAYSRACKQAQIRAKSAGELLLDFEYCKLYKGLEALIAKLVSGFDVDGIELTELTLSSEASALVSQYKGIIRGMDAQIQALQQSSKELEQENAELKEKLGEEQSLKAQLLDQNTLLKAQLGASTGQVQSAQGAEATPPNEEELNAARYQANMYFAENIRLTKELETLRQQLSAEKQSADAAQDSLAAMQKDQEDLLELLADQEAKLTRYEEAGSTNTLPTSNVAPSVPAAGGGSPIPSGTASR
On to B2, for which the binding entry in experiment [2] is “binds”.

B3: Vps41 (protein, UniProt Q7PL76 1-841)
chain: MAKALPLISCDSWADSINEEDVEPKFKYHRLANDLKYMLNADVITCSAVHLKFLIFGTFRGRVCIFDHQGNSVYSNLSASERHTHQVAVNNIDVDHKGEYVATCSDDGKVNITGLFSSDNNHSLSFGKFIKVVSLEPDSKAHIKRFVVGDDKLILYERNLLKKLKPVELCSVEGSVLSICWHGNFIAWASHIGVRVYDLNERCSLGLIKWEVPPQERLENFRCHLRWSNKHTLLIGWVDTIRVCVIRKRNSIEASTGNLPVYIVDPISTFQTTFYVCGLAPLSAKQLVVLGFRKEKSSCFKALRPVLCVIEYKMNNSEEICTDSLTLRGFEEYTVNDYSLGGIIEENRFYIVAPKDIVVASLIETDDRIEWLIKHSKFEEAMELISANGGNVPVLSVAKLYINHLLALKKYDDAAKLCLRMLGNDKVLWEEEVFKFVKCQQLRSVSAYLPTSDECKLDPHVYEMVLYEFLKFDVCGFLNLIKEWPSHLYDGLAVINAIHDNFRKHYANQLLESLALLYSYQGDFESALRMYLKLQNKDVFQLIRRYELYDVISKLIIPLIQLDRDCAFEILLDKKKIKTEIVVHQLEHNQEYLYWYLDSLLKKDPSNVFQKKLISLYAIFDRNKLLPFLKRSKDYDIQEALVICKQENFYPEIVYLLGCMGGVEASEALNIIIHRIRDIEMAIEFCKEHDDSDLWNALINEFSKHPEIVTKVLDGIVDYFSPAVVVGKIKMGQNIPNLRQSLIKMLRHYNLQGEILSSAQQIQLNDYFEIHSEIVTTQRRGQQVSYEQLCSLCHRPVLMAGTHLYCIIRLECGHVYHKPCIQGELLKNCNECNLWKLTVGK
With B3, the binding result in experiment [3] is given as “binds”.

The record behind these values is PMC4232348.
